Literature values, collected in patent publication US20090053306A1, “Pharmaceutical Compositions of a 5-HT2A Serotonin Receptor Modulator Useful for the Treatment of Disorders Related Thereto” (priority 2005, published 2009).
Some entries share one result that the patent states for a list of compounds.

Test system: diabetic rats
Conditions: range over the three drugs; cited from earlier work

| SMILES | correction of a 19.8% sciatic motor conduction deficit |
| --- | --- |
| COc1cccc(CCc2ccccc2OCC(CN(C)C)OC(=O)CCC(=O)O)c1 (centres unmarked) [sarpogrelate] | 82.6-99.7% |
| Cc1nc2sccn2c(=O)c1CCN1CCC(=C(c2ccc(F)cc2)c2ccc(F)cc2)CC1 [ritanserin] | 82.6-99.7% |
